T1: FGF7 (UniProt P21781 32-194)
T1 construct: Bought reagent; also called KGF
T1 sequence (looked up): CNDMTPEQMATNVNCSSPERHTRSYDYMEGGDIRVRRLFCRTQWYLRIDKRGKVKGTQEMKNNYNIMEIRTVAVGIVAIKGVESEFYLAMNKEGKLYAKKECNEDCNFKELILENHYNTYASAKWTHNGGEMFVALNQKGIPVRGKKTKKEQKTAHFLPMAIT

B1: truncated protein of the wild-type FGFR2b extracellular fragment (SEQ ID NO: 8) (receptor)
chain: KRAPYWTNTEKMEKRLHAVPAANTVKFRCPAGGNPMPTMRWLKNGKEFKQEHRIGGYKVRNQHWSLIMESVVPSDKGNYTCVVENEYGSINHTYHLDVVERSPHRPILQAGLPANASTVVGGDVEFVCKVYSDAQPHIQWIKHVEKNGSKYGPDGLPYLKVLKHSGINSSNAEVLALFNVTEADAGEYICKVSNYIGQANQSAWLTVLPKQQAPGR
notes: also called truncated FGFR2b extracellular fragment, wild type
B2: truncated protein of S252W mutant-type FGFR2b extracellular fragment (SEQ ID NO: 10) (receptor)
chain: KRAPYWTNTEKMEKRLHAVPAANTVKFRCPAGGNPMPTMRWLKNGKEFKQEHRIGGYKVRNQHWSLIMESVVPSDKGNYTCVVENEYGSINHTYHLDVVERWPHRPILQAGLPANASTVVGGDVEFVCKVYSDAQPHIQWIKHVEKNGSKYGPDGLPYLKVLKHSGINSSNAEVLALFNVTEADAGEYICKVSNYIGQANQSAWLTVLPKQQAPGR
notes: also called truncated FGFR2b extracellular fragment, S252W mutant type
B3: truncated protein of P253R mutant-type FGFR2b extracellular fragment (SEQ ID NO: 12) (receptor)
chain: KRAPYWTNTEKMEKRLHAVPAANTVKFRCPAGGNPMPTMRWLKNGKEFKQEHRIGGYKVRNQHWSLIMESVVPSDKGNYTCVVENEYGSINHTYHLDVVERSRHRPILQAGLPANASTVVGGDVEFVCKVYSDAQPHIQWIKHVEKNGSKYGPDGLPYLKVLKHSGINSSNAEVLALFNVTEADAGEYICKVSNYIGQANQSAWLTVLPKQQAPGR
notes: also called truncated FGFR2b extracellular fragment, P253R mutant type

These are yes or no findings as the source states them, for the method shown. Some results given as binding are weak or reduced against the parent protein; the word gives no strength.

For the assay, the target named is T1, FGF7. In words: isothermal titration calorimetry, FGF7 titrated into the fragment.
Regarding B1, the binding result is listed as “binds”.
Under B2 stands “binds”; under B3, “binds”.
